Results: paper PMC7967059

Protein sequences, listed by entry. Tags and fused reporters are not part of them. Lines headed by an entry give the natural chain unless they say otherwise; changes in a name come on top.
UniProt P43121: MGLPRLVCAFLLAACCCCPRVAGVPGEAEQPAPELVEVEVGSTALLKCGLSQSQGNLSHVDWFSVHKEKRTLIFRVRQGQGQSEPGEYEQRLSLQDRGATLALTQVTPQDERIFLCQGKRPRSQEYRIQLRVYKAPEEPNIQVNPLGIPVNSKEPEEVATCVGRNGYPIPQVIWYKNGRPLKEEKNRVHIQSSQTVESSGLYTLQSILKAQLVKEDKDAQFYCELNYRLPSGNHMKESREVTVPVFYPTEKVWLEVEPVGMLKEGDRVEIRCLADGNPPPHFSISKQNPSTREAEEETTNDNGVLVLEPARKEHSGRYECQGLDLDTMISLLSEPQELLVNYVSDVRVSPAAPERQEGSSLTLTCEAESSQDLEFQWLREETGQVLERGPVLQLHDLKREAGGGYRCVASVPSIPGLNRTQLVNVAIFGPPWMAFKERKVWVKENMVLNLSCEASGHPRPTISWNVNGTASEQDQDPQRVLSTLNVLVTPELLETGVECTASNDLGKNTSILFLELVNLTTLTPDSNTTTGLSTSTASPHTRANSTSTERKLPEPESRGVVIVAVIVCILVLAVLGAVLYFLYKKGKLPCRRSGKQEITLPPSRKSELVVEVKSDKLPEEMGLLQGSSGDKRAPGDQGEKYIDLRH

Columns and labels:
[1] = target: T1, CD146, endogenous in mouse adipose tissue (mouse (endogenous in WAT and BAT)) (UniProt Q8R2Y2); experiment: co-IP; epididymal adipose tissue (WAT) of mice fed ND or HFD (lean and obese), RIPA lysate; specific antibodies and protein G PLUS‐agarose overnight at 4 °C; wash with 1 M NaCl, 1% NP‐40; western blot
T1 sequence: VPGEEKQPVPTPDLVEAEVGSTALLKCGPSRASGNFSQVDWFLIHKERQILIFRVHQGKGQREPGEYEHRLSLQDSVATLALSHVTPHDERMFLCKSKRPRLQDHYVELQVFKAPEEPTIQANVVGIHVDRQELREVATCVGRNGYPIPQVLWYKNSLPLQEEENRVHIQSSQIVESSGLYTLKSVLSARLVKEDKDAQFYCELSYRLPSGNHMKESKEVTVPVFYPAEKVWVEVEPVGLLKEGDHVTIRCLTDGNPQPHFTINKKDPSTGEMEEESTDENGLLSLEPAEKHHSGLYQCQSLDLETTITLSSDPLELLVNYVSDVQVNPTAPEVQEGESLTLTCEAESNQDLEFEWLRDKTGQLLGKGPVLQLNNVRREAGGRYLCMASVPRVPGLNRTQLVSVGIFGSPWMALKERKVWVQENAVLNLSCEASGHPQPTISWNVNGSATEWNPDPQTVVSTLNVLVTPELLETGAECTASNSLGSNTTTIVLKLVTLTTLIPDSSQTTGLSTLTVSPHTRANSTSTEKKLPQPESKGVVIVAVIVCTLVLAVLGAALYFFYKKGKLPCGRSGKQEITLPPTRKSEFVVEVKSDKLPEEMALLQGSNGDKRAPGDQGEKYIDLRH

[2] = target: T2, purified His‐tagged ANGPTL2 (UniProt Q9UKU9); experiment: pull-down; purified His‐ANGPTL2 and CD146 (200 ng mL^-1 each) in PBS, 1 h, 4 °C; precipitated with anti‐CD146 antibodies or anti‐His tag antibodies; western blot; both purified
T2 sequence: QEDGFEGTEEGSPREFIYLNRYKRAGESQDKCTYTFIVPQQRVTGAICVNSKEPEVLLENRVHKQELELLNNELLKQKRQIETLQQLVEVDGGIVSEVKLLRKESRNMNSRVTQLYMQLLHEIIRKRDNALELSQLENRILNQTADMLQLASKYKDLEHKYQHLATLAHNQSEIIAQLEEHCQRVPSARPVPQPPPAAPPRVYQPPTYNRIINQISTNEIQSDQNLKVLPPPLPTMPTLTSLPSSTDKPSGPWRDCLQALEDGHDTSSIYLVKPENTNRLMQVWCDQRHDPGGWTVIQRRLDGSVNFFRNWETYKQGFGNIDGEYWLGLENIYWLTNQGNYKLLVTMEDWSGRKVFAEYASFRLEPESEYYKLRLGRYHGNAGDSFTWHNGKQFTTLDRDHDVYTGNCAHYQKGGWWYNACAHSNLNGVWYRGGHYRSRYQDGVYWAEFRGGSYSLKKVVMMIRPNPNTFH

[3] = target: purified CD146 protein (UniProt P43121); experiment: pull-down; receptor blocking: anti‐CD146 AA1 or AA98 first incubated with CD146 (200 ng mL^-1) and protein G PLUS‐agarose beads, then with ANGPTL2 (200 ng mL^-1); western blot; both purified
[4] = target: purified CD146 protein (UniProt P43121); experiment: pull-down; purified His‐ANGPTL2 and CD146 (200 ng mL^-1 each) in PBS, 1 h, 4 °C; precipitated with anti‐CD146 antibodies or anti‐His tag antibodies; western blot; both purified
[5] = target: CD146 containing only the 5th domain (ΔD1‐4), Flag‐tagged; experiment: co-IP; HEK293 cells cotransfected with ANGPTL2 and full‐length or truncated Flag‐CD146; RIPA lysate; anti‐FLAG M2 agarose beads overnight at 4 °C; western blot
[6] = target: CD146 with deleted 1st domain (ΔD1), Flag‐tagged; experiment: as above
[7] = target: CD146 with deleted 1st domain to the 3rd domain (ΔD1‐3), Flag‐tagged; experiment: as above

**Q.** For “ANGPTL3 (mouse (endogenous in WAT)) (ligand)”, which binding [1] is on record?
**A.** no binding

**Q.** How did the binding [1] turn out when “ANGPTL4 (mouse (endogenous in WAT)) (ligand)” was run?
**A.** no binding

**Q.** How did the binding [2] turn out when “purified CD146 protein (from UniProt P43121) (receptor)” was run?
**A.** binds

B1: purified His‐tagged ANGPTL2 (ligand, UniProt Q9UKU9 23-493)
chain: T2 sequence
**Q.** What does the source list for B1?
**A.** binding [3]: binds; binding [4]: binds

B2: ANGPTL2 coexpressed in 293 cells (ligand, UniProt Q9UKU9 23-493)
chain: T2 sequence
**Q.** How did the binding [5] turn out when B2 was run?
**A.** no binding

**Q.** What about the binding [6] of the same molecule?
**A.** binds

**Q.** What about the binding [7] of the same molecule?
**A.** binds

Results are given in words; binding and its absence hold for the method and conditions named. For some assays here: Binding can be weak; no strength is given. For some assays here: Sequences can lack the tags named with a protein. For some assays here: In cells and extracts the contact can be indirect.
